In this assay the test system is HEK293A TEAD-LUC reporter. The assay is described as follows: TEAD-luciferase reporter activity (YAP activation), robust Z score vs plate; higher = stronger YAP/TEAD activation. To be noted: 24 h.

TEAD-luciferase reporter activity data for 55 compounds are collected here from the supplement of paper PMC10735217.

Structures can show the parent of a compound that is named as a salt. Some of the results follow. Single values are uncertain here, since repeats match poorly.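 In a drug-repurposing library screen, luminescence reads luciferase driven by eight TEAD-binding elements, stably integrated into human kidney-derived cells. Compounds scoring over five robust Z scores above the plate mean are called hits.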

`O=C1CCN(c2ccccc2)c2cc(Cl)ccc2N1` [analog of Lofendazam]: the TEAD-luciferase reporter activity is inactive: -0.678 (compound concentration: 200 nM), inactive: -1.93 (compound concentration: 2 uM) and inactive: -0.693 (compound concentration: 10 uM).
In the same order, the values of `O=C(NO)C1(NS(=O)(=O)c2ccc(Oc3ccc(Cl)cc3)cc2)CCOCC1` are inactive: 0.0451, inactive: 1.1 and inactive: 0.3.
In the same order, the values of `CCOC(=O)[C@@H](N)Cc1ccc(O)c(O)c1` [Etilevodopa] are inactive: -1.86, inactive: 2.33 and inactive: 0.504.
In the same order, the values of `CO/N=C(\C(=O)N[C@@H]1C(=O)N2C(C(=O)[O-])=CCS[C@H]12)c1csc(N)n1` [Ceftizoxime (sodium)] are inactive: -1.42, inactive: -0.24 and inactive: 0.69.
For `CN1CCN2c3c(cccc31)[C@@H]1CN(CCCC(=O)c3ccc(F)cc3)CC[C@@H]12`, the TEAD-luciferase reporter activity by setting is: (compound concentration: 200 nM) active: 6.89; (compound concentration: 2 uM) inactive: 1.41; (compound concentration: 10 uM) inactive: 0.18.
Take `CN(Cc1ccccc1)C(=O)[C@@H](NC(=O)c1cc2cc(NC(=O)c3ccccc3-c3ccc(C(F)(F)F)cc3)ccc2n1C)c1ccccc1`: the TEAD-luciferase reporter activity was inactive: -0.699 (compound concentration: 200 nM), inactive: 0.111 (compound concentration: 2 uM) and inactive: -1.32 (compound concentration: 10 uM).
In the same order, the values of `CCc1nc2c(N)nc3ccccc3c2n1CCCCNS(C)(=O)=O` are inactive: -1.09, inactive: 0.277 and inactive: 0.428.
In the case of `CC(C)C(=O)N1Cc2ccccc2CC2(CCCN2C)C1` (stereo not drawn), the TEAD-luciferase reporter activity (compound concentration: 200 nM) is inactive: -1.25 and the TEAD-luciferase reporter activity (compound concentration: 10 uM) was inactive: 1.57.
As to `Cc1ccsc1-c1ccc(C(C)C(=O)O)cc1` (stereo not drawn), the TEAD-luciferase reporter activity by setting is: (compound concentration: 200 nM) inactive: -0.345; (compound concentration: 2 uM) inactive: -0.806; (compound concentration: 10 uM) inactive: 0.978.
In the same order, the values of `Cc1c(CN2CCN(C(=O)[C@H](C)O)CC2)sc2c(N3CCOCC3)nc(-c3cnc(N)nc3)nc12` [apitolisib] are inactive: -0.217, inactive: -2.45 and inactive: 1.97.
In the same order, the values of `CC1=C\[C@@H](O)CC(=O)Cc2nc(co2)C(=O)N2CCC=C2C(=O)O[C@H](C(C)C)[C@H](C)/C=C/C(=O)NC/C=C\1` [Pristinamycin IIA] are inactive: -1.19, inactive: -1.15 and inactive: 2.34.
The like results for `CCO[C@@H]1OC(=O)C[C@@H]1NC(=O)[C@@H]1CCCN1C(=O)[C@@H](NC(=O)c1ccc(N)c(Cl)c1)C(C)(C)C` [Belnacasan] were, in that order, inactive: -1.61, inactive: -1.22 and inactive: 0.962.
Consider `CC(C)C[C@H]1[C@H](c2ccccc2)OC(=O)N1CCCN1CCCCCC1` [Ipenoxazone], for which the TEAD-luciferase reporter activity is inactive: -2.08 (compound concentration: 200 nM), inactive: -0.832 (compound concentration: 2 uM) and inactive: -0.103 (compound concentration: 10 uM).
For the compound `CCC(=O)[C@@]1(C)CC[C@H]2[C@@H]3CCC4=CC(=O)CCC4=C3CC[C@@]21C` [promegestone], the TEAD-luciferase reporter activity reads like this: (compound concentration: 200 nM) inactive: -2.86; (compound concentration: 2 uM) inactive: -1.56; (compound concentration: 10 uM) active: 5.8.
Consider `Cc1ccccc1-c1nc(N2CCN(C)CC2)ncc1N(C)C(=O)C(C)(C)c1cc(C(F)(F)F)cc(C(F)(F)F)c1`, for which the TEAD-luciferase reporter activity is inactive: -0.63 (compound concentration: 200 nM), inactive: 2.45 (compound concentration: 2 uM) and inactive: 0.673 (compound concentration: 10 uM).
With `CCCC(=O)N1Cc2ccccc2CC2(CCCCN2CC2CCOCC2)C1` (stereo not drawn), the TEAD-luciferase reporter activity was inactive: -1.17 (compound concentration: 200 nM) and inactive: 2.38 (compound concentration: 10 uM).
Turning to `C[C@H](NCc1ccc(OCc2ccccc2F)cc1)C(N)=O` [ralfinamide], the TEAD-luciferase reporter activity (compound concentration: 2 uM) is inactive: 0.247.
On to `C[C@H](NCc1ccc(OCc2ccccc2F)cc1)C(N)=O`, for which the TEAD-luciferase reporter activity is inactive: -0.635 (compound concentration: 200 nM) and inactive: 4.47 (compound concentration: 10 uM).
Regarding `CC(C)CNCCCC(O)(c1ccccc1)c1ccccc1`, the TEAD-luciferase reporter activity is, setting by setting: (compound concentration: 200 nM) inactive: 0.277; (compound concentration: 2 uM) inactive: -0.0501; (compound concentration: 10 uM) inactive: 0.0606.
In the same order, the values of `CNC(=O)[C@H](C/C=C/c1ccc(N(C)c2ncccn2)cc1)NC(=O)Cc1ccccc1` are inactive: -0.0827, inactive: -0.315 and inactive: -0.168.
In the case of `COc1ccccc1Oc1cnc(-c2ncccn2)nc1NS(=O)(=O)/C=C/c1ccccc1`, the TEAD-luciferase reporter activity was inactive: -0.391 (compound concentration: 200 nM), inactive: -1.94 (compound concentration: 2 uM) and inactive: -2.62 (compound concentration: 10 uM).
Turning to `CS(=O)(=O)CCNCc1ccc(-c2ccc3ncnc(Nc4ccc(OCc5cccc(F)c5)c(Cl)c4)c3c2)o1` [lapatinib ditosylate], the TEAD-luciferase reporter activity was inactive: -0.445 (compound concentration: 200 nM) and inactive: 0.0458 (compound concentration: 10 uM).
`CS(=O)(=O)CCNCc1ccc(-c2ccc3ncnc(Nc4ccc(OCc5cccc(F)c5)c(Cl)c4)c3c2)o1` [lapatinib]: the TEAD-luciferase reporter activity (compound concentration: 2 uM) is inactive: -1.45.
Regarding `Cc1c(C)c2c(c(C)c1OP(=O)([O-])OC1=C(O)[C@@H]([C@@H](O)CO)OC1=O)CCC(C)(CCCC(C)CCCC(C)CCCC(C)C)O2` (stereo partly drawn), the TEAD-luciferase reporter activity is inactive: -1.13 (compound concentration: 200 nM), inactive: -0.474 (compound concentration: 2 uM) and inactive: -0.0307 (compound concentration: 10 uM).
In the same order, the values of `COc1ccc(CCNCC(O)COc2ccc(Cl)cc2Cl)cc1OC` (stereo not drawn) are inactive: -1.22, inactive: -0.885 and inactive: -1.61.
In the same order, the values of `NC[C@H]1O[C@@H](n2nc(Br)c3c(N)ncnc32)[C@H](O)[C@@H]1O` are inactive: -0.467, inactive: -0.491 and inactive: -0.756.
The like results for `CCS(=O)(=O)c1ccc(Oc2cc(O[C@@H](C)CO)cc(C(=O)Nc3ccn(C)n3)c2)cn1` were, in that order, inactive: -0.536, inactive: -0.936 and inactive: -0.134.
Consider `COc1ccc(C2NC(=O)C(C)S2)cc1OC` (stereo not drawn) [mezolidon], for which the TEAD-luciferase reporter activity was inactive: 4.23 (compound concentration: 200 nM), inactive: 0.87 (compound concentration: 2 uM) and inactive: -0.417 (compound concentration: 10 uM).
In the same order, the values of `CC(=O)NC(CC(=O)NC(CCC(=O)O)C(=O)O)C(=O)O` (stereo not drawn) [Spaglumic acid] are inactive: -1.15, inactive: -0.785 and inactive: 2.85.
In the same order, the values of `C[C@@H](O[C@H]1OCCN(Cc2n[nH]c(=O)[nH]2)[C@H]1c1ccc(F)cc1)c1cc(C(F)(F)F)cc(C(F)(F)F)c1` [Aprepitant] are inactive: -0.213, inactive: 1.6 and inactive: -0.831.
As to `O=NN(CCCl)C(=O)NCCCl` [carmustine implant], the TEAD-luciferase reporter activity (compound concentration: 2 uM) was inactive: 0.179.
On to `O=NN(CCCl)C(=O)NCCCl` [carmustine implant, Shandong Lanjin], for which the TEAD-luciferase reporter activity was inactive: 0.0685 (compound concentration: 200 nM) and inactive: 0.28 (compound concentration: 10 uM).
For the compound `CCOP(=O)(CCCCCCOc1ccc(F)cc1OC)OCC`, the TEAD-luciferase reporter activity was inactive: 0.0445 (compound concentration: 200 nM), inactive: -1.51 (compound concentration: 2 uM) and inactive: 0.511 (compound concentration: 10 uM).
In the same order, the values of `CC(=O)OCC(COC(C)=O)OCn1cnc2nc(N)ncc21` are inactive: -0.748, inactive: -0.223 and inactive: 0.319.
In the same order, the values of `CC(C=CC1=C(C)CCCC1(C)C)=CC=C1COC(=O)C=C1C` are inactive: -0.25, inactive: -0.458 and inactive: -0.255.
The like results for `CC(C)(O/N=C(/C(=O)N[C@@H]1C(=O)N2C(C(=O)[O-])=C(C[N+]3(C)Cc4cc(O)c(O)cc4C3)CS[C@H]12)c1csc(N)n1)C(=O)O` were, in that order, inactive: -2.19, inactive: -0.752 and inactive: 1.68.
With `Cc1cc(-c2ccc(/N=N/c3c(S(=O)(=O)[O-])cc4cc(S(=O)(=O)[O-])cc(N)c4c3O)c(C)c2)ccc1/N=N/c1c(S(=O)(=O)[O-])cc2cc(S(=O)(=O)[O-])cc(N)c2c1O`, the TEAD-luciferase reporter activity is, setting by setting: (compound concentration: 200 nM) inactive: -1.37; (compound concentration: 2 uM) inactive: -1.77; (compound concentration: 10 uM) inactive: -1.95.
The like results for `Cc1cc(Nc2cc(N3CCN(C)CC3)nc(Sc3ccc(NC(=O)C4CC4)cc3)n2)n[nH]1` [Tozasertib] were, in that order, active: 9.71, inactive: 0.614 and active: 6.84.
The like results for `CCOC(=O)c1cnc(C(C)C)[nH]c1=O` were, in that order, inactive: -1.84, inactive: 1.57 and inactive: -0.858.
The like results for `Cc1cccc2nc3cccc(C(=O)NCCNCCNCCNC(=O)c4cccc5nc6cccc(C)c6nc45)c3nc12` were, in that order, inactive: -1.82, inactive: 0.461 and inactive: 0.68.
As for `CC(C)C[C@H](NC(=O)OCC1c2ccccc2-c2ccccc21)C(=O)O`, the TEAD-luciferase reporter activity (compound concentration: 200 nM) is inactive: -0.745, the TEAD-luciferase reporter activity (compound concentration: 2 uM) is inactive: -0.0883 and the TEAD-luciferase reporter activity (compound concentration: 10 uM) was active: 5.51.
The like results for `C[C@H](NC(=O)[C@@H](O)c1cc(F)cc(F)c1)C(=O)N[C@@H]1C(=O)N(C)N=Cc2ccccc21` were, in that order, inactive: -0.439, inactive: 0.843 and inactive: -0.604.
In the same order, the values of `CC(O)CNC(=O)c1ccccc1SSc1ccccc1C(=O)NCC(C)O` (stereo not drawn) are inactive: -1.71, inactive: -0.937 and inactive: 1.32.
`CCC1(c2ccccc2)C(=O)NCNC1=O` [primidone]: the TEAD-luciferase reporter activity (compound concentration: 2 uM) was inactive: -1.11.
Consider `CCC1(c2ccccc2)C(=O)NCNC1=O`, for which the TEAD-luciferase reporter activity reads like this: (compound concentration: 200 nM) inactive: -0.12; (compound concentration: 10 uM) inactive: -1.26.
Regarding `CC(=O)OC1CC(C)(C)N(O)C(C)(C)C1`, the TEAD-luciferase reporter activity runs as follows: (compound concentration: 200 nM) inactive: -0.0157; (compound concentration: 2 uM) inactive: -0.179; (compound concentration: 10 uM) inactive: 0.246.
The like results for `COCC(O)Cn1c(=O)cnn(-c2ccc(Cl)c(C(=O)NCC3(O)CCCCCC3)c2)c1=O` (stereo not drawn) were, in that order, inactive: -1.29, inactive: -0.947 and inactive: 1.65.
In the same order, the values of `Cn1cc(C2=C(c3cn(C)c4cc([N+](=O)[O-])ccc34)C(=O)NC2=O)c2ccccc21` are inactive: -1.42, inactive: -1.92 and inactive: 0.764.
In the same order, the values of `CCCCCCOc1nsnc1C1=CCCN(C)C1` [Xanomeline] are inactive: 1.72, inactive: 0.0365 and inactive: -1.68.
As for `CNCc1ccc(-c2cc(-c3nc(-c4ccc(S(=O)(=O)C(C)C)cc4)cnc3N)on2)cc1`, the TEAD-luciferase reporter activity (compound concentration: 200 nM) is inactive: 0.729, the TEAD-luciferase reporter activity (compound concentration: 2 uM) is inactive: -0.699 and the TEAD-luciferase reporter activity (compound concentration: 10 uM) is inactive: -0.499.
The like results for `Cc1c(C(=O)Nc2ccc(Oc3ccnc4cc(OCC(C)(C)O)ccc34)c(F)c2)c(=O)n(-c2ccccc2)n1C` [Ningetinib Tosylate] were, in that order, inactive: 1.03, inactive: -0.701 and inactive: -1.49.
In the case of `CCn1cc(C(=O)O)c(=O)c2cc(F)c(N3CCN(C)CC3)cc21` [Pefloxacin], the TEAD-luciferase reporter activity (compound concentration: 2 uM) was inactive: 0.727.
For `CCn1cc(C(=O)O)c(=O)c2cc(F)c(N3CCN(C)CC3)cc21`, the TEAD-luciferase reporter activity is, setting by setting: (compound concentration: 200 nM) inactive: 1.41; (compound concentration: 10 uM) inactive: 0.357.
As to `CN(C)CC(CN(C)C)OC(=O)COc1ccc(Cl)cc1`, the TEAD-luciferase reporter activity reads like this: (compound concentration: 200 nM) inactive: 1.36; (compound concentration: 2 uM) inactive: -0.904; (compound concentration: 10 uM) inactive: 2.21.
The like results for `O=C(O)c1cc2cc(O)c(O)cc2c(C(=O)c2ccc(O)c(O)c2)n1` were, in that order, inactive: -1.31, inactive: -1.73 and active: 5.35.
